The record followed here is publication PMC4237420.

Chains of the proteins cited; added tags and fusions are not shown.
UniProt P29311: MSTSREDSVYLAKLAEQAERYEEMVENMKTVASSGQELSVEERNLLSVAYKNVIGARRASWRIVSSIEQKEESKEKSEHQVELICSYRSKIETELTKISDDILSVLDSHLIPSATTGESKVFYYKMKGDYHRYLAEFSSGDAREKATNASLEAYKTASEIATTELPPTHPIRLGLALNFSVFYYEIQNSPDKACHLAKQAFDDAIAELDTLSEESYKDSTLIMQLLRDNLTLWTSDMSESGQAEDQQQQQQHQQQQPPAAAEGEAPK
UniProt P34730: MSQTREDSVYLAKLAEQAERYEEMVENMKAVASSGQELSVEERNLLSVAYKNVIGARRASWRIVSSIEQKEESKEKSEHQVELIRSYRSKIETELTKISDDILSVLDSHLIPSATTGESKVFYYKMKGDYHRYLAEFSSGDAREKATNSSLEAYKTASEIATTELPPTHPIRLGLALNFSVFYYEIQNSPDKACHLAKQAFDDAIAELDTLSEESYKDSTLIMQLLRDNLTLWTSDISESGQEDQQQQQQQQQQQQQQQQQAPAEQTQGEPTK

Results are given in words; binding and its absence hold for the method and conditions named. Binding seen in cells or lysates may run through a third protein.

This test addresses T1, SBP-Sps1-T12A (S. cerevisiae) (UniProt P08458).
T1 sequence: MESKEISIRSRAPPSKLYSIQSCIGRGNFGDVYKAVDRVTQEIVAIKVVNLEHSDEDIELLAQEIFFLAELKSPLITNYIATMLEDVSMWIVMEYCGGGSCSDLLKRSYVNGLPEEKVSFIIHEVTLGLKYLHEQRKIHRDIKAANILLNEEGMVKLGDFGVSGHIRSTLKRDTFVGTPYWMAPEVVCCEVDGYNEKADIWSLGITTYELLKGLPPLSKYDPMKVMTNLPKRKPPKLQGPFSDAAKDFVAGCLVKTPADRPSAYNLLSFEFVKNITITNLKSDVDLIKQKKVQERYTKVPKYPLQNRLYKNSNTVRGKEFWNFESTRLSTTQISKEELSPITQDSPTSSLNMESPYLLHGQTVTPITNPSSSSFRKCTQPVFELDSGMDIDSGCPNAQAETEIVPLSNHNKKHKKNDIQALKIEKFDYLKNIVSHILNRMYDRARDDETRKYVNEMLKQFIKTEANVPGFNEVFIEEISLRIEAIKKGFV
The experiment in a line: co-IP; SBP-tagged Sps1 captured from log-phase yeast lysates on Streptavidin Plus Ultralink Resin in IP buffer (329.2 mM NaCl, 0.0823 mM EDTA, 16.46 mM HEPES, 1.2345 mM MgCl2, 0.823% Nonidet P-40, protease and phosphatase inhibitors), washed 4 times, eluted with biotin; immunoblot with anti-Bmh antibody.

As to Bmh1 (from UniProt P29311 1-267), the binding result is “no binding”.

As to Bmh2 (from UniProt P34730 1-273), the binding entry is given as “no binding”.
